Laboratory results as given in article PMC11678932.
For at least one entry, the source does not settle the construct or the ends of the probe. A weaker result is weaker than the reference pair of the same experiment. For some of these results: Tags and fusion partners may be left off the protein sequences shown.

Sequences of proteins named here, by UniProt entry; tags and fusion partners are left off. Residues count along the entry.
UniProt P02769, 25-607: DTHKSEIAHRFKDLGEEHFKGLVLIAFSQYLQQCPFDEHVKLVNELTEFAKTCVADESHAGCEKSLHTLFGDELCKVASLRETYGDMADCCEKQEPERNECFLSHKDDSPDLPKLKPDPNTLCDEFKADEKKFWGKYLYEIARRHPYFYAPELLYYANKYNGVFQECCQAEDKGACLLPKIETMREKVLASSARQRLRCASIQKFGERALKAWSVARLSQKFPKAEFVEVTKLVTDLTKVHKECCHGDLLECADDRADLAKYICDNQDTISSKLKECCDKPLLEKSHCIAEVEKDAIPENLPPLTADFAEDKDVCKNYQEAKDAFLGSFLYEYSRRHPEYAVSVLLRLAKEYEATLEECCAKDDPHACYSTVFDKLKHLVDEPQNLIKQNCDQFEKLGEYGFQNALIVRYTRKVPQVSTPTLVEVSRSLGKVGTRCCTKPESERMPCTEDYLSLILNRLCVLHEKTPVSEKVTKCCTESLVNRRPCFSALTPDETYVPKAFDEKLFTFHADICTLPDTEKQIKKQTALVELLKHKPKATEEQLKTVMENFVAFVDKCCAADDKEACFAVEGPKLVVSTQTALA
UniProt P07288, 25-261: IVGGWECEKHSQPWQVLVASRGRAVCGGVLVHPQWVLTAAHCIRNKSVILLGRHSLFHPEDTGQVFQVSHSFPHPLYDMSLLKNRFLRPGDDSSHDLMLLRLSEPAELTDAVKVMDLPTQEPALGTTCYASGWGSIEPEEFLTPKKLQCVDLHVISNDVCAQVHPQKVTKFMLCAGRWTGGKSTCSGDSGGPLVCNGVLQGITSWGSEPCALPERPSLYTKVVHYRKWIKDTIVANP

Assays:
Assay in all cases: electrochemical aptasensor (DPV)
Conditions in all cases: 100x concentration over AFP (100 ng/mL), weak signal change; 5'-SH; 3'-methylene blue; Optimized: pH 7, 4 uM aptamer, 40 min aptamer and 30 min AFP incubation; PBS (0.01 M) listed as reagent; temperature not stated for binding; commercial protein; label: 3'-methylene blue; single-stranded DNA
[1] = target: bovine serum albumin (BSA) (bovine) (UniProt P02769)
[2] = target: prostate-specific antigen (PSA) (UniProt P07288)
hemoglobin (HGB) = tested on: hemoglobin (HGB)
ovalbumin (OVA) = target: T1, ovalbumin (OVA) (UniProt P01012)
T1 sequence (looked up, limits assumed): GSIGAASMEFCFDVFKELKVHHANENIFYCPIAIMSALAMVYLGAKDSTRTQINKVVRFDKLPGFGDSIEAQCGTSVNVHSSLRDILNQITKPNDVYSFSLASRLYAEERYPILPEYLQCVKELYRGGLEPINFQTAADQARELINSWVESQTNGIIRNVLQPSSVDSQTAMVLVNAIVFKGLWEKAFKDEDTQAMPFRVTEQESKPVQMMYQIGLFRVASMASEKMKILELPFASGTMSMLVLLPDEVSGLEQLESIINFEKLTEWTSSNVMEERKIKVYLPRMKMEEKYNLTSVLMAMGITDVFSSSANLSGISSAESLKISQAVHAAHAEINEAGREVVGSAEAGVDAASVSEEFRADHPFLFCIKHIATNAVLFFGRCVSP

Measured: binding result

GTGACGCTCCTAACGCTGACTCAGGTGCAGTTCTCGACTCGGTCTTGATGTGGGTCCTGTCCGTCCGAACCAATC [AFP aptamer]
binds more weakly: all assays above
